In patent US20100190735A1, “Mouthwash and Method of Using Same for the Treatment of Mucositis or Stomatitis” (priority 2006, published 2010):
Structures can show the parent of a compound that is named as a salt.

Assay: Storage stability of mouth rinse formulation B8: potency of the actives by HPLC
Format: physicochemical
Source text: Quantification of the respective ingredients was done using high performance liquid chromatography (HPLC). A difference in calculated quantity of less than 5% from the intial formulation (i.e. time=0) amount was considered a “pass”, that is, indicative of minimal degradation. The relative standard deviation for the HPLC calculations was 3%.

- Potency (of label claim) (formulation B8, 2 months at 40° C.): 100.8%
- Potency (of label claim) (formulation B8, 2 months at room temperature): 98.1%
- Potency (of label claim) (formulation B8, 3 months at 40° C.): 97.1%
- Potency (of label claim) (formulation B8, 3 months at room temperature): 102.7%
- Potency (of label claim) (formulation B8, 4 months at 40° C.): 102.7%
- Potency (of label claim) (formulation B8, 12 months at fridge 4° C.): 96.3%
- Potency (of label claim) (formulation B8, 12 months at room temperature): 100.1%
- Potency (of label claim) (formulation B8, time = 0): 103.2%
Compound: C[C@@H]1C[C@H]2[C@@H]3CCC4=CC(=O)C=C[C@]4(C)[C@@]3(F)[C@@H](O)C[C@]2(C)[C@@]1(O)C(=O)COP(=O)(O)O [Dexamethasone sodium phosphate, Dexamethasone 21-phosphate disodium salt]
- Potency Pass/fail (formulation B8, 2 months at 40° C., 90 to 110% of label claim, less than 5% change): Pass (A difference in calculated quantity of less than 5% from the intial formulation (i.e. time=0) amount was considered a “pass”)
- Potency Pass/fail (formulation B8, 2 months at room temperature, 90 to 110% of label claim, less than 5% change): Pass (A difference in calculated quantity of less than 5% from the intial formulation (i.e. time=0) amount was considered a “pass”)
- Potency Pass/fail (formulation B8, 3 months at 40° C., 90 to 110% of label claim, less than 5% change): Pass (A difference in calculated quantity of less than 5% from the intial formulation (i.e. time=0) amount was considered a “pass”)
- Potency Pass/fail (formulation B8, 3 months at room temperature, 90 to 110% of label claim, less than 5% change): Pass (A difference in calculated quantity of less than 5% from the intial formulation (i.e. time=0) amount was considered a “pass”)
- Potency Pass/fail (formulation B8, 4 months at 40° C., 90 to 110% of label claim, less than 5% change): Pass (A difference in calculated quantity of less than 5% from the intial formulation (i.e. time=0) amount was considered a “pass”)
- Potency Pass/fail (formulation B8, 4 months at room temperature, 90 to 110% of label claim, less than 5% change): Pass (A difference in calculated quantity of less than 5% from the intial formulation (i.e. time=0) amount was considered a “pass”)
- Potency Pass/fail (formulation B8, 12 months at fridge 4° C., 90 to 110% of label claim, less than 5% change): Pass (A difference in calculated quantity of less than 5% from the intial formulation (i.e. time=0) amount was considered a “pass”)
- Potency Pass/fail (formulation B8, 12 months at room temperature, 90 to 110% of label claim, less than 5% change): Pass (A difference in calculated quantity of less than 5% from the intial formulation (i.e. time=0) amount was considered a “pass”)
- Potency Pass/fail (formulation B8, time = 0, limits 90 to 110% of label claim): Pass (A difference in calculated quantity of less than 5% from the intial formulation (i.e. time=0) amount was considered a “pass”)
